Assay [1] concerns the target Fos proto-oncogene, AP-1 transcription factor subunit (FOS) (human (endogenous in SK-N-SH and SY5Y)) (UniProt P01100). The experiment in a line: co-IP; 2 mg precleared whole cell lysate of NB cells (RIPA buffer with protease inhibitors) incubated with 2 ug anti-FOS or IgG control for 2 h, protein G beads; western blot. A general note: In western blotting, separated proteins are transferred to a membrane and probed.

Assay [2] has as its target T1, Fos proto-oncogene, AP-1 transcription factor subunit (FOS) (human (endogenous in SK-N-SH and SY5Y)), P01100.
T1 chain: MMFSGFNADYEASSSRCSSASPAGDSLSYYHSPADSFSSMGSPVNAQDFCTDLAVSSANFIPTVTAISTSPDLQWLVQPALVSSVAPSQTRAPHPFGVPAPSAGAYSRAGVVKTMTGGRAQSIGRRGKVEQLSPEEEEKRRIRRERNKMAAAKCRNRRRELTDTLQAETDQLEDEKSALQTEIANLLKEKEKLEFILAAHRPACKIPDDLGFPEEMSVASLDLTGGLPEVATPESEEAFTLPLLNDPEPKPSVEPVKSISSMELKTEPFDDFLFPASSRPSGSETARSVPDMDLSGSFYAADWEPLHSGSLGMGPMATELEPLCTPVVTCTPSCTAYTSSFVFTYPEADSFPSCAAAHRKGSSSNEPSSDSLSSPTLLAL
Described as above. The following applies: remark: other sources report otherwise.

The values that follow come from paper PMC11910558.

Results are given in words; binding and its absence hold for the method and conditions named. In cells and extracts the contact can be indirect. Some binding calls cover weakened binding; strength is not graded here.

Take p53 (from UniProt P04637 1-393): the binding result in assay [1] is reported as “no binding”.

B1: JUND, P17535 1-347 (protein)
chain: METPFYGDEALSGLGGGASGSGGSFASPGRLFPGAPPTAAAGSMMKKDALTLSLSEQVAAALKPAAAPPPTPLRADGAPSAAPPDGLLASPDLGLLKLASPELERLIIQSNGLVTTTPTSSQFLYPKVAASEEQEFAEGFVKALEDLHKQNQLGAGAAAAAAAAAAGGPSGTATGSAPPGELAPAAAAPEAPVYANLSSYAGGAGGAGGAATVAFAAEPVPFPPPPPPGALGPPRLAALKDEPQTVPDVPSFGESPPLSPIDMDTQERIKAERKRLRNRIAASKCRKRKLERISRLEEKVKTLKSQNTELASTASLLREQVAQLKQKVLSHVNSGCQLLPQHQVPAY
B1: the binding entry in assay [2] was “binds”.
